Results as given in PMC6471829.
No constants are given. Whether binding was seen depends on the method and setting. Binding seen in cells or lysates may run through a third protein. Some binding calls cover weakened binding; strength is not graded here.

The chains behind the UniProt entries cited, without tags or fusion partners.
UniProt P48431: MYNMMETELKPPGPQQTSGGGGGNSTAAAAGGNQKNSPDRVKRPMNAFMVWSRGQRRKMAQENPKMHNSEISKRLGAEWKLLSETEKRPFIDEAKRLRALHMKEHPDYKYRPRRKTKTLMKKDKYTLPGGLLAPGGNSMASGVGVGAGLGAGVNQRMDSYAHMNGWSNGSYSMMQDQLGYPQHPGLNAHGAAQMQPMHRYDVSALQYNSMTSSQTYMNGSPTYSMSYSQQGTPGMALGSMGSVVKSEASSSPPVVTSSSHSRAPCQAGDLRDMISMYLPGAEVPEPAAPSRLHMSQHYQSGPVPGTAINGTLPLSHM
UniProt Q01860: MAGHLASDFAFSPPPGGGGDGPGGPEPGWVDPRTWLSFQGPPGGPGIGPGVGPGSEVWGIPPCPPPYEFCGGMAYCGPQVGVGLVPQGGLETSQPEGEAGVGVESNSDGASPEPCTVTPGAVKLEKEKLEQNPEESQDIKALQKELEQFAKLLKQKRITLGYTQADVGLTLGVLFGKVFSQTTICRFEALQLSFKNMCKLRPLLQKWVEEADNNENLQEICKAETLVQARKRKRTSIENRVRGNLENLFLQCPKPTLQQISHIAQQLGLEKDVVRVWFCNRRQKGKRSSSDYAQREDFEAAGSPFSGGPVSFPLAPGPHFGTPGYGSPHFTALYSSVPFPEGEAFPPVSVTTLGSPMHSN

Experiments:
[1] = molecular target: SOX2 (human (endogenous in hESCs and hESC-derived NECs)) (UniProt P48431); test: co-IP; SOX2 immunoprecipitated from lysates of undifferentiated hESCs or hESC-derived neural epithelial cells; 1 mg protein, antibody 90 min at 4 °C, Protein-G Dynabeads 1 h; lysis buffer 40 mM HEPES pH 7.4, 5 mM EDTA, 0.05% 2-mercaptoethanol, 10 mM NaCl, 0.5% NP40; immunoblot
HA-SOX2 (human) = HA-SOX2 (human) (UniProt P48431); test: co-IP; Figure S4B-E: SOX2 (wild type or HMG-domain mutants) with OCT4 and PAX6, also with increasing amounts of expressed PAX6; cells and antibodies not shown; general co-IP protocol of the methods

For OCT4 (from UniProt Q01860 1-360), the binding [1] was “binds”.

In the case of Flag-OCT4 (from UniProt Q01860 1-360), the binding (HA-SOX2 (human)) is reported as “binds”.
